No constants are given. Whether binding was seen depends on the method and setting. Binding seen in cells or lysates may run through a third protein. Some results given as binding are weak or reduced against the parent protein; the word gives no strength.
How the values were obtained:
[1] = molecular target: ZIC3, endogenous in mouse olfactory bulb (mouse (endogenous in olfactory bulb tissue)) (UniProt Q62521); assay: co-IP; endogenous proteins, adult mouse OB tissue lysate (20 mM Tris pH 8.0, 137 mM NaCl, 1% NP-40, 2 mM EDTA); forward: IP with ZIC3 antibody, blot ER81; reverse: IP with ER81 antibody, blot ZIC3; protein-A sepharose
[2] = molecular target: ER81, endogenous in mouse olfactory bulb (mouse (endogenous in olfactory bulb tissue)) (UniProt P41164); assay: as above
FLAG-ER81 (mouse) = FLAG-ER81 (mouse) (UniProt P41164); assay: co-IP; HEK-293T cells overexpressing FLAG-ER81 and GST-tagged ZIC3 constructs; immunoprecipitation with FLAG antibody, immunoblot with GST antibody

Protein sequences, listed by entry. Tags and fused reporters are not part of them.
UniProt Q62521: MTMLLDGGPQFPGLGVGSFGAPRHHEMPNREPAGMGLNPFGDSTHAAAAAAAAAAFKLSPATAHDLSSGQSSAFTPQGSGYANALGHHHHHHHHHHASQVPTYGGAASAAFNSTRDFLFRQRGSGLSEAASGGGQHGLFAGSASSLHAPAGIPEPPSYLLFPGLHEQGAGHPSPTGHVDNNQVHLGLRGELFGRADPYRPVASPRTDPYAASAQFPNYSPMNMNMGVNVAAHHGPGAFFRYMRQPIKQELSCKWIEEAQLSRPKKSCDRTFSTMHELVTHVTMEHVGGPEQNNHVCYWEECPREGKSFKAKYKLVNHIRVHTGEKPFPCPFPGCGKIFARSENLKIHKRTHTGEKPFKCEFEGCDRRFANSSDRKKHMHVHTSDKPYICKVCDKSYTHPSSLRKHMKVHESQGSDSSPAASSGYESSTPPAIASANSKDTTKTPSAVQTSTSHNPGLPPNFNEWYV
UniProt P41164: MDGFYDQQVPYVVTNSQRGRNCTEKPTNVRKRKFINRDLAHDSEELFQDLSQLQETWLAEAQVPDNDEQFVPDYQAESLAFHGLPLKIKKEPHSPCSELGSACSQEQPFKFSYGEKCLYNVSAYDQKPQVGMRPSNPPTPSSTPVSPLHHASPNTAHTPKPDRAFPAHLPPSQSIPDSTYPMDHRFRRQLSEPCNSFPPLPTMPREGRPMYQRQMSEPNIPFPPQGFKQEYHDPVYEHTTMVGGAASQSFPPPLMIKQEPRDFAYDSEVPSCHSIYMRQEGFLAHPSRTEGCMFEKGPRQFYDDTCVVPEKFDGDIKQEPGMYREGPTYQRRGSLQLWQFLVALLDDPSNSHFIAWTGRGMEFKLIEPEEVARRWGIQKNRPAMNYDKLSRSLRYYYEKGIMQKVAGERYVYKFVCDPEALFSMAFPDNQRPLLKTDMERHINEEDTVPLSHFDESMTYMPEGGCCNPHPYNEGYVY

ER81, endogenous in mouse olfactory bulb (from UniProt P41164 1-477)
binding [1]: binds

ZIC3, endogenous in mouse olfactory bulb (from UniProt Q62521 1-466)
binding [2]: binds

ZIC3-GST, full length (Zinc Finger transcription factor of the Cerebellum 3) (from UniProt Q62521 1-466)
binding (FLAG-ER81 (mouse)): binds

From article PMC11992298
